# Library screening results

A: 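Whole-cell assay for inhibitors of Mycobacterium tuberculosis growth, labelled Cornell in the record; the read-out is not stated. The concentration is filed as 10 mM, unlikely as a test dose, so the dose is not known. Higher means stronger inhibition (inferred from two other growth screens of the library). Size under these conditions: about 53,000 compounds, about 900 of them at 50% or above in at least one test.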
B: 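Assay on Mycobacterium tuberculosis, filed only as a heat shock assay from Cornell; the read-out is not stated. The concentration is filed as 10 mM, unlikely as a test dose, so the dose is not known. Higher reads as stronger inhibition (inferred: compounds with an IC50 in retests scored well above the rest). About 69,000 compounds were tested under these conditions; 1.4% (about 930) showed 50% or more at least once.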

The filed quantity is “Percent Effect” (%). The controls that fix the scale are not given in the record; negative values are as filed. The compounds are a random part of those screened. A dash means the value is not listed here; it may have been measured.

SMILES,A,B
c1csc(N2CCN(c3nccn4cnnc34)CC2)n1,12.43%,-17.24%
Cc1cc(-c2ccc(=O)n(C3CCN(C(=O)C4CC4)CC3)n2)c(C)o1,4.083%,25.96%
O=C(O)C(F)(F)F.[H][C@@]12CCN(Cc3nccs3)[C@]1([H])CC[C@H](C(=O)N1CCC(C)CC1)O2,-23.25%,-10.06%
CCC[C@@H](NC(N)=O)C(=O)N1CCc2c(Cl)cccc2C1,-,-40.24%
COC(=O)CCN1CCCC1c1ccccc1Cl (stereo not drawn),7.383%,1.807%
Cc1ccc(NC(=O)Cn2cc(I)cn2)cc1,2.116%,34.9%
Cc1nc(C)c(COc2ccc(S(=O)(=O)N(C)C)cc2)s1,-6.593%,4.794%
Cc1nc(C)c(C(=O)N2CCCN(Cc3cnn(C)c3)CC2)s1,-9.364%,24.28%
COCCN(Cc1ccc(C)o1)C(=O)Nc1nnc(C(F)F)s1,4.838%,-15.86%
CNc1nc(C)c(C(=O)N2CCC(C(O)Cc3ccccc3)CC2)s1 (stereo not drawn),-,-23.06%
Cn1cc(CC2CCN(C(=O)NCc3csc(C4CC4)n3)C2)cn1 (stereo not drawn),-,-7.349%
COc1cc(CNC(=O)Nc2nncs2)ccc1O,-2.7%,-6.46%
Cc1nc(C)n(CCCNc2ncnc3onc(C)c23)n1,8.953%,-26.99%
O=C1CC(N(C(=O)CCc2c[nH]c3ccccc23)C2CC2)C(=O)N1 (stereo not drawn),-29.57%,5.703%
NC(=O)C1=NC2=NS(=O)(=O)c3ccccc3N2N1Cc1ccccc1Cl,106.2%,13.62%
CC(c1nc(C(C)(C)C)no1)S(=O)(=O)CC(=O)N1CCCC1 (stereo not drawn),-73.5%,13.34%
c1ccc(Oc2cccc(OC34CCCN(CC3)C4)c2)cc1 (stereo not drawn),-,91.1%
Cl.O=S(=O)(N1CCCCC1)N1CCc2nc(C3CCNCC3)ncc2C1,10.24%,3.586%
CO[C@H]1C[C@@H](O)C12CCN(C(=O)c1cccc(CCC(C)(C)O)c1)CC2,-14.04%,19.25%
Cc1cccc(Cn2ccc(NS(C)(=O)=O)n2)c1,15%,9.776%
Cc1cnn(CCNCc2nc(-c3ccsc3)oc2C)c1,-36.32%,-4.227%
CN(C)C(=O)c1cccnc1SCc1ccccc1C#N,-6.668%,1.898%
CNS(=O)(=O)c1cccc(CNC(=O)c2cnn(C)c2C)c1,-32.87%,-0.9896%
COc1c(C)cnc(CN2CCC(C(=O)N(C)C)CC2)c1C,25.43%,-26.56%
Cl.[H][C@]12CN(C(=O)CC(C)(C)C)[C@]([H])(CN1)C2,-,-0.1363%
Cc1cccc(N2CCN(C(=O)CCCC(=O)N(C)C)C(C)C2)n1 (stereo not drawn),-4.216%,12.1%
CN(Cc1cnccn1)S(=O)(=O)N1CCCC1c1ccco1 (stereo not drawn),-,-26.65%
Cc1nnc2n1CCN(C(=O)c1cnc3c(cnn3CC(C)C)c1)C2,-30.22%,-20.02%
CN(Cc1ccc(F)cc1)CC1(O)CCN(C(=O)c2ccn(C)n2)C1 (stereo not drawn),2.359%,-5.852%
Cc1c(NCCO)cccc1OC1CCCC1,10.6%,-31.43%
[H][C@]12CN(C(=O)C3CC3)CCN1C[C@@H](CO)[C@@H]2c1ccccc1,-7.41%,32.51%
CC(C)CN1CCOC[C@H](Oc2ccc(S(C)(=O)=O)cc2)C1,-10.3%,-7.379%
Cc1ncnc2c1CCN(C(=O)c1ccsc1)CC2,-26.42%,-38.49%
Cc1noc(CCCC(=O)NC(C)c2cccnc2)n1 (stereo not drawn),-,-6.97%
O=C(O)CC(O)(CC(=O)O)C(=O)O.c1ccc([C@@H]2CN(Cc3ccncc3)C[C@H]2c2cc[nH]n2)cc1,17.96%,3.73%
CCn1cnnc1CNC(=O)c1ccc(Br)cc1F,3.791%,-19.18%
[H][C@@]12CCN(C(=O)C3CC3)[C@]1([H])C(=O)N(c1ccc(C)cc1)C(=O)N2,-,-3.989%
CC(O)CC(C)(C)CNS(=O)(=O)c1cccc(Cl)c1C#N (stereo not drawn),-,-25.6%
c1ccc2sc(N3CCCC(Cn4cncn4)C3)nc2c1 (stereo not drawn),29.99%,-10.02%
[H][C@]12CCN(S(=O)(=O)c3ccc(C)cc3)[C@@]1([H])[C@@H](NC(=O)c1ccncc1)C2,-32.08%,-5.715%
CCn1c(C2CCCNC2)nn(CCn2cncn2)c1=O (stereo not drawn),-2.629%,15.64%
COCCO[C@H]1COCCN(Cc2ccc(OC)cc2)C1,-13.17%,-39.29%
CC(C)c1nccn1C1CCCN(C(=O)CCNS(C)(=O)=O)C1 (stereo not drawn),13.98%,-9.061%
O=C(O)C(F)(F)F.c1csc(CN2CCCn3nnc(COCC4CC4)c3C2)n1,-64.55%,6.657%
Cc1ncoc1C(=O)N1CCOC(CCCC(C)C)C1 (stereo not drawn),-0.7684%,-2.501%
CCNC(=O)[C@@H]1C[C@H](N)CN1C(=O)c1cccc(CCC(C)(C)O)c1,15.45%,1.354%
Cc1ncc(CN2CCCC(c3cc(C(F)(F)F)[nH]n3)C2)s1 (stereo not drawn),29.8%,-1.485%
COc1ccc(-n2ncc(C(C)NC3CCOCC3)c2C)cc1 (stereo not drawn),19.29%,-2.461%
Cc1cc(S(=O)(=O)N2CCC(S(C)(=O)=O)CC2)ccc1F,27.53%,-12.99%
Cc1noc(C)c1CN1CCOCC12CCN(c1ncccn1)CC2.O=C(O)C(F)(F)F,-14.67%,31.37%
COc1c(C)cnc(CN(C)C(=O)Nc2ccc3c(c2)CCO3)c1C,65.58%,3.167%
COCCN1CC[C@]2(CN(Cc3cccnc3)C[C@H]2C)C1=O.O=C(O)C(F)(F)F.O=C(O)C(F)(F)F,15.25%,-8.302%
Cc1cc(C)n(C2CN(CC(=O)NC(C3CC3)C3CC3)C2)n1,-20.07%,11.77%
CC(C)[C@H](Nc1cc(-c2ccncc2)nc2ccnn12)C(N)=O,-1.909%,7.689%
O=C(CCc1ccncc1)N1CCCC(N2CCNC2=O)C1 (stereo not drawn),14.32%,-23.91%
Cn1cc(-c2ncnc3c2CCN(C(=O)c2cscn2)CC3)cn1,-26.37%,-2.713%
CN(C)C(=O)CN1CCC(c2c(C(N)=O)sc3ncccc23)C1 (stereo not drawn),46.62%,-5.242%
O=C(O)C(F)(F)F.O=C(O)C(F)(F)F.c1coc(CN2CCCC3(COCCN(Cc4c[nH]nn4)C3)C2)c1 (stereo not drawn),23.42%,3.144%
CCOC(C)C(=O)N(C)C1CCN(c2ccc(OC)cc2)CC1 (stereo not drawn),19.68%,-9.355%
Cc1cnn(CC(C)NCc2cccnc2)c1 (stereo not drawn),-5.694%,-1.51%

Repeated from the top, 6 entries:

With c1csc(N2CCN(c3nccn4cnnc34)CC2)n1 the screen gave A: 12.43%; B: -17.24%.
With Cc1cc(-c2ccc(=O)n(C3CCN(C(=O)C4CC4)CC3)n2)c(C)o1 the screen gave A: 4.083%; B: 25.96%.
With O=C(O)C(F)(F)F.[H][C@@]12CCN(Cc3nccs3)[C@]1([H])CC[C@H](C(=O)N1CCC(C)CC1)O2 the screen gave A: -23.25%; B: -10.06%.
With CCC[C@@H](NC(N)=O)C(=O)N1CCc2c(Cl)cccc2C1 the screen gave B: -40.24%.
With COC(=O)CCN1CCCC1c1ccccc1Cl (stereo not drawn) the screen gave A: 7.383%; B: 1.807%.
With Cc1ccc(NC(=O)Cn2cc(I)cn2)cc1 the screen gave A: 2.116%; B: 34.9%.

From ChEMBL document CHEMBL3988442, “University of Dundee, Small-Polar-MMV Screening Library” (2021).